Results published in article PMC9980208.
These are yes or no findings as the source states them, for the method shown. Binding seen in cells or lysates may run through a third protein. For some of these results: A result given as binding can be weak or reduced; the word gives no strength. For some of these results: Tags and fused reporters may be left off the sequences shown. Blank lines part the entries; values can stand above or below the molecule they belong to.

Protein sequences, listed by entry. Tags and fused reporters are not part of them. Lines headed by an entry give the natural chain unless they say otherwise; changes in a name come on top.
UniProt P38432: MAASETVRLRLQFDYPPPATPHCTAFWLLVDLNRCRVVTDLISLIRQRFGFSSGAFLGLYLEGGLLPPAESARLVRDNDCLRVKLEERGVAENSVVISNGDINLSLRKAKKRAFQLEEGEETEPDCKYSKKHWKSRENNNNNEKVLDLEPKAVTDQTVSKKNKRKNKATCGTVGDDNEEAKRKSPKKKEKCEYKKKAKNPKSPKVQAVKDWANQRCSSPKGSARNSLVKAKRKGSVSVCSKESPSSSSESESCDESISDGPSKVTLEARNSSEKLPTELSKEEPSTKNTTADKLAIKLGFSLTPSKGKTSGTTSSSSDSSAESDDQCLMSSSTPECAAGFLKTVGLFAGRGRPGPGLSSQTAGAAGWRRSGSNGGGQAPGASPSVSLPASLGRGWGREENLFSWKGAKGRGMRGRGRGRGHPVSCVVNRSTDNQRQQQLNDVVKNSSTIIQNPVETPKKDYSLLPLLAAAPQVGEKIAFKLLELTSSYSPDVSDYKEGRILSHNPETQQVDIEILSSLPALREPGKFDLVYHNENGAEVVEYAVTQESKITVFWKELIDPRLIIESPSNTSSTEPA
UniProt P62318: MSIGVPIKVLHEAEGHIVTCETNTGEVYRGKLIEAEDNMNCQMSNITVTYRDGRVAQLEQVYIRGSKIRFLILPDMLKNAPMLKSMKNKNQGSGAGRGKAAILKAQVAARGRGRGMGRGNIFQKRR

Columns and labels:
[1] = molecular target: GFP-fused TDRD1-ΔDYGN (full-length TDRD1 without the 4 conserved residues DYGN of cTD4) (human) (UniProt Q9BXT4); assay: co-IP; HeLa cells, GFP-tagged TDRD1 constructs and Flag-tagged SNRPD3 constructs
[2] = molecular target: GFP-fused TDRD1-ΔcTD4 (full-length TDRD1 without the core Tudor 4 domain) (human) (UniProt Q9BXT4); assay: as above
[3] = molecular target: GFP-fused TDRD1-ΔcTD4 (full-length TDRD1 without the core Tudor 4 domain) (human) (UniProt Q9BXT4); assay: co-IP; 22Rv1 cells transfected with TDRD1 constructs, then treated with 15 uM of antiandrogens for 6 hours before harvesting
[4] = molecular target: T1, GFP-fused full-length TDRD1 (Tudor Domain Containing 1) (human) (UniProt Q9BXT4); assay: co-IP; HeLa cells, GFP-tagged TDRD1 constructs and Flag-tagged SNRPD3 constructs
T1 sequence: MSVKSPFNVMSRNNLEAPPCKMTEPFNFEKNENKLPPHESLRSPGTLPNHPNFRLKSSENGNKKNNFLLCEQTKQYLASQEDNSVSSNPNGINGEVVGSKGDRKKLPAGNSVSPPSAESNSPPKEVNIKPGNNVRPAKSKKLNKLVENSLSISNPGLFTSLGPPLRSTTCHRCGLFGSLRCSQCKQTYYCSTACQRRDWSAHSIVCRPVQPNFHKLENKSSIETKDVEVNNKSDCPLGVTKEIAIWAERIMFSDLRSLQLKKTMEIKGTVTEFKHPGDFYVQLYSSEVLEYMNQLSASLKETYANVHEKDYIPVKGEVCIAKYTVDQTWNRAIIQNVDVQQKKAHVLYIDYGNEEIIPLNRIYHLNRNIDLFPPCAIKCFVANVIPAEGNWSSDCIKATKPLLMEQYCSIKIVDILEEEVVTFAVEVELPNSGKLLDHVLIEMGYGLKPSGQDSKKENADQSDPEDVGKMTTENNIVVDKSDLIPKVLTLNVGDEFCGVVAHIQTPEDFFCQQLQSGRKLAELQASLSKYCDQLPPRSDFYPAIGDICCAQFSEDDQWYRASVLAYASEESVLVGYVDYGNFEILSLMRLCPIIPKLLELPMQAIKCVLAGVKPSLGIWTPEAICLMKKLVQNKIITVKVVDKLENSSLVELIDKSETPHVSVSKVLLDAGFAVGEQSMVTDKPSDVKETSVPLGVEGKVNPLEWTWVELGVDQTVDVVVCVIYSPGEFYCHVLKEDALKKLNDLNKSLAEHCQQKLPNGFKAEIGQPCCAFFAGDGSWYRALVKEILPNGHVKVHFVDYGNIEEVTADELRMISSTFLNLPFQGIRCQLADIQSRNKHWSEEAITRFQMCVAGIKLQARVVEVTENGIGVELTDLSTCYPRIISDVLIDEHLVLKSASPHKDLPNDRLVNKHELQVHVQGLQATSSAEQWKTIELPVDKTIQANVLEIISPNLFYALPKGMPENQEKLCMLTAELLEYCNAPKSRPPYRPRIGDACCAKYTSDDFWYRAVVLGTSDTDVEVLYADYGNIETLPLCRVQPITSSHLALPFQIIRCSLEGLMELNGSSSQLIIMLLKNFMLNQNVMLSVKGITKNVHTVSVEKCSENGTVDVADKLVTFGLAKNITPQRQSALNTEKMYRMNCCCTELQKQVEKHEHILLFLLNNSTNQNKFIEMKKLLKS

[5] = molecular target: Flag-tagged human Coilin (human) (UniProt P38432); assay: co-IP; GFP-tagged TDRD1 or eTD4 constructs and Flag-tagged Coilin constructs (Figure 6B, C, E, G, H); cell line not stated
[6] = molecular target: Flag-tagged Coilin with the RG box deleted (human) (UniProt P38432); assay: as above

binding [1]: no binding
binding [2]: no binding
Molecule: Flag-tagged wild-type SNRPD3 (from UniProt P62318 1-126)

binding [3]: no binding
Molecule: endogenous SNRPD3 (from UniProt P62318 1-126)

binding [4]: no binding
Molecule: Flag-tagged SNRPD3 R5K (from UniProt P62318)

binding [5]: binds
Molecule: GFP-fused TDRD1-ΔcTD4 (full-length TDRD1 without the core Tudor 4 domain) (from UniProt Q9BXT4)

binding [6]: no binding
B1: GFP-fused TDRD1 eTD4 (a.a. 911-1180) (domain or fragment, UniProt Q9BXT4 911-1180)
chain: NKHELQVHVQGLQATSSAEQWKTIELPVDKTIQANVLEIISPNLFYALPKGMPENQEKLCMLTAELLEYCNAPKSRPPYRPRIGDACCAKYTSDDFWYRAVVLGTSDTDVEVLYADYGNIETLPLCRVQPITSSHLALPFQIIRCSLEGLMELNGSSSQLIIMLLKNFMLNQNVMLSVKGITKNVHTVSVEKCSENGTVDVADKLVTFGLAKNITPQRQSALNTEKMYRMNCCCTELQKQVEKHEHILLFLLNNSTNQNKFIEMKKLLKS

binding [6]: no binding
B2: GFP-fused full-length TDRD1 (Tudor Domain Containing 1) (protein, UniProt Q9BXT4 1-1180)
chain: T1 sequence
